Experimental data taken from publication PMC5469197, “ANGUSTIFOLIA, a Plant Homolog of CtBP/BARS Localizes to Stress Granules and Regulates Their Formation” (Frontiers in Plant Science, 2017).
No constants are given. Whether binding was seen depends on the method and setting. In cells and extracts the contact can be indirect. Here binding means that the protein was enriched with, or labelled near, the bait; the list need not be complete. Where a sequence is shown, tags or fusion partners need not be part of it. One block for each molecule: values may come before it.

Protein sequences, listed by entry. Tags and fused reporters are not part of them. Residues count along the entry.
UniProt O04151, residues 23-425: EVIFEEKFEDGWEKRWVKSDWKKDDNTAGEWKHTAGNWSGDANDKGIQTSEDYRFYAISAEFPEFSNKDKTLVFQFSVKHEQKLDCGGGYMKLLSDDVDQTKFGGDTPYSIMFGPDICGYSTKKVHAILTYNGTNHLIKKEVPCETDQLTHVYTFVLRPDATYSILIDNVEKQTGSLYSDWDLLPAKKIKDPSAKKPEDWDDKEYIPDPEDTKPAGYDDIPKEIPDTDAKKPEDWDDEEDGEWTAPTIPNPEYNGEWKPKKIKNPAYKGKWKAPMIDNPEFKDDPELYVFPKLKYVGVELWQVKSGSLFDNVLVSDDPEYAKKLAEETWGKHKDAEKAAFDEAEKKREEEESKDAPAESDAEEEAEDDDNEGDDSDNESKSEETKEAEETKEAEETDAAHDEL

Target: T1, YFP-AN-strep (Arabidopsis thaliana) (UniProt O23702)
T1 sequence: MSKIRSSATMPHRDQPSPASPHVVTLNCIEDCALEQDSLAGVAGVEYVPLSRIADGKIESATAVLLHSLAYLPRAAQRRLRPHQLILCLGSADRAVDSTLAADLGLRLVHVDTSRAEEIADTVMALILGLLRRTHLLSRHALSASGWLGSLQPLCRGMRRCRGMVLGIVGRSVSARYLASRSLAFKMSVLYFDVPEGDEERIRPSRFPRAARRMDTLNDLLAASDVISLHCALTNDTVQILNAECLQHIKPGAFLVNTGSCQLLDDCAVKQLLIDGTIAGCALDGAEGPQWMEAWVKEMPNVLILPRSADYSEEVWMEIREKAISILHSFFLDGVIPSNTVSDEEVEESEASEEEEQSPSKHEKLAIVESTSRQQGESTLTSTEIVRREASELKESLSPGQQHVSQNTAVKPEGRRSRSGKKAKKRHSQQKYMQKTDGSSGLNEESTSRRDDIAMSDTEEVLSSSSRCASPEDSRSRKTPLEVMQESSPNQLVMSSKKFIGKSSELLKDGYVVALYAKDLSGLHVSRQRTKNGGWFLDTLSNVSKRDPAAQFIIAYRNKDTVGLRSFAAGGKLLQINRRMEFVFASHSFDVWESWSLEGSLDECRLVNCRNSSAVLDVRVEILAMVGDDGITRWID
Assay: affinity purification with mass spectrometry; YFP-AN-strep in crude extract of transfected Arabidopsis cell culture bound to Strep-Tactin MacroPrep, five washings, eluted with 2.5 mM desthiobiotin; co-purified proteins by mass spectrometry, against a control cell culture

B1: PO…-BINDING PROTEIN RBP47C′, endogenous (protein, UniProt Q9SX80 1-434)
chain: MADVKVQSESESSDSHPLVDYQSLPPYPPPHPPVEVEENQPKTSPTPPPPHWMRYPPVLMPQMMYAPPPPMPFSPYHQYPNHHHFHHQSRGNKHQNAFNGENKTIWVGDLQNWMDEAYLNSAFTSAEEREIVSLKVIRNKHNGSSEGYGFVEFESHDVADKVLQEFNGAPMPNTDQPFRLNWASFSTGEKRLENNGPDLSIFVGDLAPDVSDALLHETFSEKYPSVKAAKVVLDANTGRSKGYGFVRFGDENERTKAMTEMNGVKCSSRAMRIGPATPRKTNGYQQQGGYMPSGAFTRSEGDTINTTIFVGGLDSSVTDEDLKQPFSEFGEIVSVKIPVGKGCGFVQFVNRPNAEEALEKLNGTVIGKQTVRLSWGRNPANKQPRDKYGNQWVDPYYGGQFYNGYGYMVPQPDPRMYPAAPYYPMYGGHQQQVS
binding: binds

B5: KH DOMAIN-CONTAINING PROTEIN (AT2G38610), endogenous (protein, UniProt Q9ZVI3 1-286)
chain: MSGLYNNSSYFSPARAASPQIRSTPEIDSSQYLTELLAEHQKLTPFMQVLPICSRLLNQEMFRVSGMMSNQGFGDFDRLRHRSPSPMASSNLMSNVSNTGLGGWNGLSQERLSGTPGMTMDWQGAPGSPSSYTVKRILRLEIPVDNYPNFNFVGRLLGPRGNSLKRVEATTGCRVFIRGKGSIKDPEKEDKLRGRPGYEHLNEQLHILIEADLPASIVEIRLRQAQEIIEELLKPVDESQDFIKRQQLRELALLNSNNLREESPGPSGGGSVSPFNSSGKRPKTGC
binding: binds

B7: PO…-BINDING PROTEIN RBP47A, endogenous (protein, UniProt F4I3B3 1-445)
chain: MQTPNNNGSTDSVLPPTSAGTTPPPPLQQSTPPPQQQQQQQWQQQQQWMAAMQQYPAAAMAMMQQQQMMMYPHPQYAPYNQAAYQQHPQFQYAAYQQQQQQHHQSQQQPRGGSGGDDVKTLWVGDLLHWMDETYLHTCFSHTNEVSSVKVIRNKQTCQSEGYGFVEFLSRSAAEEALQSFSGVTMPNAEQPFRLNWASFSTGEKRASENGPDLSIFVGDLAPDVSDAVLLETFAGRYPSVKGAKVVIDSNTGRSKGYGFVRFGDENERSRAMTEMNGAFCSSRQMRVGIATPKRAAAYGQQNGSQALTLAGGHGGNGSMSDGESNNSTIFVGGLDADVTEEDLMQPFSDFGEVVSVKIPVGKGCGFVQFANRQSAEEAIGNLNGTVIGKNTVRLSWGRSPNKQWRSDSGNQWNGGYSRGQGYNNGYANQDSNMYATAAAAVPGAS
binding: binds

B8: PROTEIN MEI2-LIKE 5 (ATML5), endogenous (protein, UniProt Q8VWF5 1-800)
chain: MDIPHEAEAGAWGILPGFGRHHHPSSDATLFSSSLPVFPRGKLQLSDNRDGFSLIDDTAVSRTNKFNESADDFESHSIGNLLPDEEDLLTGMMDDLDLGELPDADDYDLFGSGGGMELDADFRDNLSMSGPPRLSLSSLGGNAIPQFNIPNGAGTVAGEHPYGEHPSRTLFVRNINSNVEDSELTALFEQYGDIRTLYTTCKHRGFVMISYYDIRSARMAMRSLQNKPLRRRKLDIHFSIPKDNPSEKDMNQGTLVVFNLDPSISNDDLHGIFGAHGEIKEIRETPHKRHHKFVEFYDVRGAEAALKALNRCEIAGKRIKVEPSRPGGARRSLMLQLNQDLENDDLHYLPMIGSPMANSPPMQGNWPLNSPVEGSPLQSVLSRSPVFGLSPTRNGHLSGLASALNSQGPSSKLAPIGRGQIGSNGFQQSSHLFQEPKMDNKYTGNLSPSGPLISNGGGIETLSGSEFLWGSPNARSEPSSSSVWSTSSTGNPLFSTRVDRSVPFPHQHQNQSRSHHHFHVGSAPSGVPLEKHFGFVPESSKDALFMNTVGLQGMSGMGLNGGSFSSKMANNGIINSGSMAENGFSSYRMMSSPRFSPMFLSSGLNPGRFASGFDSLYENGRPRRVENNSNQVESRKQFQLDLEKILNGEDSRTTLMIKNIPNKYTSKMLLAAIDEKNQGTYNFLYLPIDFKNKCNVGYAFINMLNPELIIPFYEAFNGKKWEKFNSEKVASLAYARIQGKSALIAHFQNSSLMNEDMRCRPIIFDTPNNPESVEQVVDEESKNMDLLDSQLSDDDGRERS
binding: binds

Second part, the molecule after the results:

binding: binds
Molecule: CALRETICULIN-1 (CRT1), endogenous (from UniProt O04151 23-425)

binding: binds
Molecule: KEULE, endogenous

binding: binds
B2: mRNA cap guanine-N7 methyltransferase 1, endogenous (protein, UniProt Q9LHQ7 1-370)
chain: MKRGFSDSPSSSAPPPSSRFKSNPEGDSQFLEDETTKNFARKVADHYSRRTNQTLEEREASPIIHLKKLNNWIKSVLIQLYARPDDAVLDLACGKGGDLIKWDKARIGYYVGIDIAEGSIEDCRTRYNGDADHHQRRKKFSFPSRLLCGDCFEVELDKILEEDAPFDICSCQFAMHYSWTTEARARRALANVSALLRPGGVFIGTMPDANVIIKKLREAEGLEIGNSVYWIRFGEEYSQKKFKSSSPFGIEYVFHLEDAVDCPEWIVPFNVFKSLAEEYDLELVFVKNSHEFVHEYMKKPEFVELMRRLGALGDGSNDQSTLSADEWEAAYLYLSFVLRKRGESDGARRSGRRKNGKMNLSKDDVLYIDS

binding: binds
B3: COLD SHOCK PROTEIN 2 (CSP2), endogenous (protein, UniProt Q41188 1-203)
chain: MSGDNGGGERRKGSVKWFDTQKGFGFITPDDGGDDLFVHQSSIRSEGFRSLAAEEAVEFEVEIDNNNRPKAIDVSGPDGAPVQGNSGGGSSGGRGGFGGGRGGGRGSGGGYGGGGGGYGGRGGGGRGGSDCYKCGEPGHMARDCSEGGGGYGGGGGGYGGGGGYGGGGGGYGGGGRGGGGGGGSCYSCGESGHFARDCTSGGR

binding: binds
B4: PO… TRACT-BINDING PROTEIN HOMOLOG 3 (PTBP3), endogenous (protein, UniProt Q6ICX4 1-432)
chain: MAESSKVVHVRNVGHEISENDLLQLFQPFGVITKLVMLRAKNQALLQMQDVSSAVSALQFFTNVQPTIRGRNVYVQFSSHQELTTIEQNIHGREDEPNRILLVTIHHMLYPITVDVLHQVFSPYGFVEKLVTFQKSAGFQALIQYQVQQCAASARTALQGRNIYDGCCQLDIQFSNLEELQVNYNNDRSRDYTNPNLPAEQKGRSSHPCYGDTGVAYPQMANTSAIAAAFGGGLPPGITGTNDRCTVLVSNLNADSIDEDKLFNLFSLYGNIVRIKLLRNKPDHALVQMGDGFQAELAVHFLKGAMLFGKRLEVNFSKHPNITPGTDSHDYVNSNLNRFNRNAAKNYRYCCSPTKMIHLSTLPQDVTEEEVMNHVQEHGAVVNTKVFEMNGKKQALVQFENEEEAAEALVCKHATSLGGSIIRISFSQLQTI

binding: binds
B6: GLYCINE-RICH RNA-BINDING PROTEIN 2 (GRP2), endogenous (protein, UniProt Q9SVM8 35-158)
chain: TKLFIGGLSWGTDDASLRDAFAHFGDVVDAKVIVDRETGRSRGFGFVNFNDEGAATAAISEMDGKELNGRHIRVNPANDRPSAPRAYGGGGGYSGGGGGYGGGGGGYGGGGGGYGGGGDGGGGF
